According to paper doi:10.1101/2022.09.26.509508:

T1: LIN-42b (LIN-42^Period isoform, two-hybrid bait) (C. elegans) (UniProt Q65ZG8)
T1 sequence: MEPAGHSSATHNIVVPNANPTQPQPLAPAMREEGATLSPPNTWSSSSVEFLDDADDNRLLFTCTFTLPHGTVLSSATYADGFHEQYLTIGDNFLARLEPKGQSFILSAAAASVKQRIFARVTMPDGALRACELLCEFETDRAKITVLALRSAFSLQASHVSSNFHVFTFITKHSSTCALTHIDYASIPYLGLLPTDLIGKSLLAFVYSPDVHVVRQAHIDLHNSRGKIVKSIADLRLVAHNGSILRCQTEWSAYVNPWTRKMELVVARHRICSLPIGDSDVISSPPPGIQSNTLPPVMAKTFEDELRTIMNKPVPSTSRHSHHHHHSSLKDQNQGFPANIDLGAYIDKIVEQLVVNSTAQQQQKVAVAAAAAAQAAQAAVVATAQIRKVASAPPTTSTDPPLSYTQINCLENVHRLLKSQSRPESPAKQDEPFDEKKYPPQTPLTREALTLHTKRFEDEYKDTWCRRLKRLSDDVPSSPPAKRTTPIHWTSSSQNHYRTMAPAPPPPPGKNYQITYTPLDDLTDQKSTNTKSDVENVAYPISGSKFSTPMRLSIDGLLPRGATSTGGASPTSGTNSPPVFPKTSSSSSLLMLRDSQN


What was measured:
[1] = target: T1, LIN-42b (LIN-42^Period isoform, two-hybrid bait) (C. elegans); test: two-hybrid
[2] = target: LIN-42a (LIN-42^Period isoform, two-hybrid bait) (C. elegans); test: two-hybrid

Row | Molecule | binding [1] | binding [2]
1 | NHR-85 central hinge region (two-hybrid) (C. elegans) (domain or fragment) | binds | 
2 | NHR-85^Rev-Erb (two-hybrid fusion) (protein, UniProt Q9XUK7 1-514) MDLSTSGSLPCHLPLSLLTNLQTPPIDTSFSSPPATSSSSLLSPSPSSAFRPVVPKSLMNPQPAMDTFYMSAIQSLVVSTTNDDQYSEHGALEGSKSLAKDENASTSAGTILCQVCSDKASGFHYGVFACEGCKGFFRRSIQQKITYRACTRAEDCLILRNNRNRCQCCRLKKCLAVGMSRDAVRFGRVPKREKARMFEEMQKTNVQSQRDQIAIQYENLTEVMHKINQAFGTLQATLEKCTGPIYTDRCPITSNFIVIPLKAAIDFANSIPAFLSITQTQRVHLLQNSVFDVMLLASASASTSQHFPPGGLTYDQSSANPIIPQAIQSISARIRQLPPQTVPILTAIAVCQADLLPESQQPMLLAERLWCVLGKLGGIQSLATAPSLLADVRTLRQWHSDRLRQMSQISQHFSQNLLIAPVAAAAPVLLPPAFLSPPASATSTSSSSVKSEFIERHPSIASLLERPRRISSSGAQEPLNLSLPHVRHQVKRDVDSDEQLEEMKVSPVPTTLSE |  | binds
3 | NHR-23^ROR (two-hybrid fusion) (protein, UniProt P41828 1-588) MACKVTGPNRHLTSVLEMSSFVYWPRSRQQAHNFPMQAVEQKLADATRTLHAKSSLQPSLSIETPKSKENDESGCESSNCMFHPHTIKSEPNFCFAREFKSVPDDFRIGGGDLQMGNNSKRLTCVIDTNRVDMAGILPDNMSFRGLPENKSLLVSAQIEVIPCKVCGDKSSGVHYGVITCEGCKGFFRRSQSSIVNYQCPRQKNCVVDRVNRNRCQYCRLKKCIELGMSRDAVKFGRMSKKQREKVEDEVRMHKELAANGLGYQAIYGDYSPPPSHPSYCFDQSMYGHYPSGTSTPVNGYSIAVAATPTTPMPQNMYGATPSSTNGTQYVAHQATGGSFPSPQVPEEDVATRVIRAFNQQHSSYTTQHGVCNVDPDCIPHLSRAGGWELFARELNPLIQAIIEFAKSIDGFMNLPQETQIQLLKGSVFELSLVFAAMYYNVDAQAVCGERYSVPFACLIAEDDAEMQLIVEVNNTLQEIVHLQPHQSELALLAAGLILEQVSSSHGIGILDTATIATAETLKNALYQSVMPRIGCMEDTIHRIQDVETRIRQTARLHQEALQNFRMSDPTSSEKLPALYKELFTADRP |  | no binding

These are yes or no findings as the source states them, for the method shown. Binding calls can cover weak binding; strength is not graded here. For part of these data: Sequences can lack the tags named with a protein.
